# Assay results reported in PubChem BioAssay AID652054 (National Center for Advancing Translational Sciences (NCATS), 2013).
# Sequences of proteins named here, by UniProt entry; tags and fusion partners are left off.
# UniProt P35462, whole entry, looked up: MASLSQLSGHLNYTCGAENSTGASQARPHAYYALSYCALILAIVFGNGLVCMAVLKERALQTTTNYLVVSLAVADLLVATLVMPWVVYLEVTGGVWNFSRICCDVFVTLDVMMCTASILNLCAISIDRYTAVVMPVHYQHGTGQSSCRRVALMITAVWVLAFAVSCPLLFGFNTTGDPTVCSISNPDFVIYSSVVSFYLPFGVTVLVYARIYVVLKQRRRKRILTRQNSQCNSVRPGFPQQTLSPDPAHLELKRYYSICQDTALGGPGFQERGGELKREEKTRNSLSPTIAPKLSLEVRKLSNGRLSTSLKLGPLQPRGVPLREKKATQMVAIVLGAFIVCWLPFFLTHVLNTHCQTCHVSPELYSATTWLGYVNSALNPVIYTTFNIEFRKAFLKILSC
# About 9,100 (2.5%) of roughly 360,000 compounds were called active. Inconclusive means that the source gave no clear call. Such entries were picked first, then a sample of the others. Cut-off read from the data, not from the text of the source: active = max response below about -50%; inconclusive = no clear call, values can overlap the other calls; inactive = above that.
# Target: D(3) dopamine receptor (Homo sapiens) (UniProt P35462)
# Experiment: qHTS of D3 Dopamine Receptor Antagonist: qHTS
# Conditions: D3R cells, DiscoveRx beta-arrestin luminescence, antagonist mode; stronger effect = lower value
# In short: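 Cells plated overnight at 1500 cells/well, then exposed to library compounds with dopamine controls for 90 minutes at 37 degrees C. DiscoveRx reagent added for 30–60 minutes at room temperature; luminescence read, quantitative HTS format.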
# % is set by controls: 0 for no effect and ±100 for the full control effect.
row,Structure (SMILES),"max response, negative = inhibition"
1,O=C(NNS(=O)(=O)c1ccc(Cl)cc1)C1CCN(Cc2ccccc2)CC1,inconclusive: -32.4%
2,OC(CN1CCN(c2ccc(F)cc2)CC1)c1ccc(Cl)cc1 (stereo unspecified),inconclusive: -34.4%
3,O=C(COC(=O)c1ncc(Cl)c(Cl)c1Cl)NC(=O)NCc1ccccc1,inconclusive: -30.8%
4,CSc1ccc(/C=C/C(=O)Nc2ccccc2)cc1,inactive: 6.58%
5,Cc1cccc(C)c1NC(=O)N1CCC(c2nc3ccccc3o2)CC1,active: -74.9%
6,CCOc1ccccc1N1CCN(C(=O)c2ccc3[nH]c4c(c3c2)CCCC4)CC1,inconclusive: -40.3%
7,O=S(=O)(c1cccc(-c2n[nH]c(=S)n2-c2ccccc2Cl)c1)N1CCOCC1,inconclusive: -44.8%
8,COc1ccccc1N1CCN(C(=O)C(Sc2ccccc2)c2ccccc2)CC1 (stereo unspecified),inactive: 14.8%
9,O=c1c2cc(Cl)ccc2[nH]c(=S)n1Cc1ccccn1,inactive: -15.9%
10,O=C(OCc1ccccc1)C1=[N+]([O-])OC(C(=O)OCc2ccccc2)C1c1c[nH]c2ccccc12 (stereo unspecified),inconclusive: -40.9%
11,Cc1ccc(S(=O)(=O)N2CCOCC2)cc1C(=O)OCC(=O)NC1CCS(=O)(=O)C1 (stereo unspecified),inconclusive: -36.1%
12,CCCCNc1nc2ccccc2n1CC(=O)N1CCc2ccccc2C1,active: -76%
13,CCC(=O)N(Cc1ccco1)c1nc(C(=O)Nc2ccc(Cl)cc2)c(C)s1,inconclusive: -40.8%
14,CC(C)C(=O)C1=Cc2cc([N+](=O)[O-])ccc2OC1N1CCOCC1 (stereo unspecified),inconclusive: -43.7%
15,CC1(C)N=C(c2ccccc2)C(c2ccccc2)=N1,inactive: -8.87%
16,CCC(C)c1ccc(S(=O)(=O)N2CCN(C(=O)c3ccc(Cl)c(S(=O)(=O)N4CCOCC4)c3)CC2)cc1 (stereo unspecified),inactive: 19.5%
17,Cc1nn(Cc2ccc(F)cc2)c2sc(C(=O)Nc3ccccc3N3CCOCC3)cc12,inactive: 17.7%
18,Cc1cc(C)c2ccc(C(=O)O)nc2c1O,active: -62.8%
19,Cc1ccc(C)c(N2CCN(C(=O)c3ccccc3Br)CC2)c1,inactive: 1.14%

# 3 compounds drawn at random from those above, as already listed:
row,Structure (SMILES),"max response, negative = inhibition"
10,O=C(OCc1ccccc1)C1=[N+]([O-])OC(C(=O)OCc2ccccc2)C1c1c[nH]c2ccccc12 (stereo unspecified),inconclusive: -40.9%
4,CSc1ccc(/C=C/C(=O)Nc2ccccc2)cc1,inactive: 6.58%
17,Cc1nn(Cc2ccc(F)cc2)c2sc(C(=O)Nc3ccccc3N3CCOCC3)cc12,inactive: 17.7%

# Remaining list, next part.

row,Structure (SMILES),"max response, negative = inhibition"
1,Oc1ccc(C2C(c3ccccc3)=NN=C(c3ccccc3F)N2O)c(O)c1 (stereo unspecified),inconclusive: -48.9%
2,Cc1ccnc(SCC(N)=O)n1,inconclusive: -33.2%
3,Cc1ccc(-c2cn(C[C@H]3CC[C@@H]([C@@H]4CC[C@H](Cn5cc(-c6ccc(C)cc6)nn5)O4)O3)nn2)cc1,inactive: -6.11%
4,Cn1c(Cn2nnc3ccccc32)nnc1SCC(=O)N1CCc2ccccc21,inactive: 16.5%
5,OCCN1CCN(Cc2cc(Cl)c3cccnc3c2O)CC1,inconclusive: -45.2%
6,COC(=O)CN1C(=O)[C@H]2[C@@H](/C=C/c3ccccc3)N3C(=O)CN(CC4CC4)C(=O)[C@@]3(Cc3ccccc3)[C@H]2C1=O,inconclusive: -42.6%
7,COC(=O)c1cccc(S(=O)(=O)N2CCCCC2)c1,inconclusive: -34.8%
8,OC1CCN(c2c3c(nc4cc(-c5ccc(Cl)cc5)nn24)CCC3)CC1,inactive: -29.3%
9,OC[C@@H]1CN(CCNc2ccccc2)C[C@H](n2cnc3c(NCc4ccncc4)ncnc32)O1,inconclusive: -31.1%
10,CCOc1ccccc1CN1CCN(CCCc2ccccc2)CC1CCO (stereo unspecified),active: -73.5%
11,O=C(CSc1ccccn1)Nc1nonc1[N+](=O)[O-],active: -70.3%
12,CCn1c(O)c(C2=c3ccccc3=NC2=O)c2cc(Br)ccc21,active: -80.3%
13,O=C(CCn1c(=S)[nH]c2ccccc2c1=O)NCCc1ccc(Cl)cc1,inconclusive: -33.2%
14,Cc1ccc(S(=O)(=O)N(CC(=O)NCCC2=CCCCC2)Cc2ccccc2F)cc1,active: -74.4%
15,O=C(NCc1ccccn1)c1ccccc1OCc1ccc(Cl)cc1Cl,inactive: -10.6%
16,COc1ccc(CCN(C)C(=O)C2CCN(Cc3cccc(OC)c3OC)CC2)cc1OC,inactive: -15.4%
17,CCCCCNCc1cccc(Br)c1,active: -62.7%
18,S=C(Nc1cccc(Cl)c1)N(CCCN1CCCC1)Cc1cccn1Cc1ccc(Cl)cc1,inconclusive: -35.1%
19,CCN(c1ccccc1)S(=O)(=O)c1ccc(C(=O)Nc2ccncc2)cc1,inconclusive: -34.7%

row,Structure (SMILES),"max response, negative = inhibition"
1,COc1ccccc1Nc1nc(-c2ccc3c(c2)NC(=O)CO3)cs1,inactive: 12.1%
2,Cc1ccc(NC(=S)N(C)Cc2cn(C)c3ccccc23)cc1,inconclusive: -34%
3,CN(C)CCNC(=O)c1cc2ccccc2oc1=O,inactive: 15.8%
4,Cc1cccc(OCC2CCCN(Cc3nc(C4CC4)no3)C2)c1 (stereo unspecified),inactive: -7.72%
5,O=C(CCNC(=O)c1ccc([N+](=O)[O-])cc1)Nc1cccc(S(=O)(=O)N2CCCCCC2)c1,inconclusive: -39.2%
6,O=C(NC1CCCCC1)C(=O)c1c[nH]c2ccccc12,inconclusive: -31.7%
7,CN(C)c1ccc(CNC2C3CC4CC(C3)CC2C4)cc1 (stereo unspecified),inconclusive: -30.6%
8,CC1CCN(C(=S)c2cn(Cc3cccc(F)c3)c3ccccc23)CC1,inconclusive: -37.8%
9,O=C(CCOc1ccccc1)Nc1ccc(S(=O)(=O)N2CCCC2)cc1,inconclusive: -30.3%
10,O=S(=O)(c1ccccc1)c1cnc(-c2cccnc2)nc1-c1ccc(Cl)cc1Cl,inactive: -13.3%
11,CCC1CCc2sc(C(=O)NC3CCN(Cc4ccccc4)CC3)cc2C1 (stereo unspecified),active: -72%
12,CC(C)c1nnc(NC(=O)COc2ccccc2[N+](=O)[O-])s1,inactive: -24.3%
13,Cc1cccc(C)c1NC(=O)CN1CCc2ccccc2C1,inconclusive: -45.6%
14,CCCCC(CC)C(=O)Nc1cc(C(=O)NCCC)ccc1N1CCC2(CC1)CC(c1ccccc1)=NO2 (stereo unspecified),inactive: 37.8%
15,COc1ccc(NC(=O)c2[nH]c(C)c(C(C)=O)c2C)cc1,inconclusive: -30.4%
16,Cc1cc(O)c(-c2n[nH]c3c2C(c2cccc(O)c2)N(Cc2cccnc2)C3=O)cc1Cl (stereo unspecified),inconclusive: -40.9%
17,CC(=O)N=c1sc(S(N)(=O)=O)nn1C,active: -121%
18,Cc1cc(C)c2c(=O)n(CC(=O)Nc3cccc(F)c3)sc2n1,inconclusive: -32%
